Measurements as given in PubChem BioAssay AID504444 (National Center for Advancing Translational Sciences (NCATS), 2011).
The campaign covered roughly 360,000 compounds. About 7,500 (2.1%) were called active. Inconclusive means that the source gave no clear call. Such entries were picked first, then a sample of the others. The call rests on the fitted dose curve; in most records, active means well fitted inhibition curve with a large enough effect; inconclusive means small, poorly fitted or top-dose-only effect, or effect the other way; inactive means flat fitted curve, though single readings scatter. Where the call is inconclusive, the potency comes from a doubtful curve fit.

Assay: Nrf2 qHTS screen for inhibitors; further: nearly all actives have a fitted effect of over 60% in size
Settings: A549 ARE-Fluc reporter, luciferase luminescence, 18-24 h; series mostly up to 46 µM
In short: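 In this cell-based qHTS, ARE-driven firefly luciferase in A549 cells reports Nrf2 activity; the luminescent signal after BugLite lysis is the measured value, with a prior CellTiter-Fluor read for cell health.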
Potency means the concentration at half of the fitted maximal effect.

| SMILES | Potency |
| --- | --- |
| Cc1ccc(Cl)cc1N1CCN(C(=O)Cc2csc(Nc3nc(=S)[nH]c4ccccc34)n2)CC1 | inconclusive: 29.1 µM [activator, single point] |
| CC1CCC2(CC1)NC(=O)N(CC(=O)Nc1ccc3c(c1)OCCCO3)C2=O (stereo unspecified) | inactive |
| N#CC1=C(N)Oc2[nH]c(=S)[nH]c(=O)c2C12C(=O)Nc1ccccc12 (stereo unspecified) | inconclusive: 25.9 µM [falling, partial curve, poor fit] |
| CCCc1cc(Nc2ccccc2)n2ncnc2n1 | inconclusive: 29.1 µM [falling, single point] |
| CC(NC(=O)COc1ccccc1Cl)c1ccccc1 (stereo unspecified) | inconclusive: 16.4 µM [falling, single point] |
| CN(C(=O)COc1ccccc1C(=O)NCCOc1ccccc1)c1ccccc1 | active: 14.6 µM |
| CCOc1ccc(NC(=O)CSc2nc(C3CC3)nc3ccccc23)cc1 | inconclusive: 29.1 µM [falling, single point] |
| CCOC(=O)Cc1csc(NC(=O)COC(=O)/C=C/c2ccc(OC)cc2)n1 | inconclusive: 29.1 µM [falling, single point] |
| N#CCSc1nc(-c2ccccc2)c2cc(Cl)ccc2n1 | inactive |
| Cc1oc2ncn(C)c(=O)c2c1C(=O)N(C)c1ccccc1F | inconclusive: 8.2 µM [activator, partial curve, poor fit] |
| COC(=O)c1ccc(CSc2nnc(C)s2)cc1 | inconclusive: 20.6 µM [activator, partial curve, poor fit] |
| C1=CC2=NC34CCCCC3CC3=C(CCCC3)N4C2=CC1=NC1CCCCC1 (stereo unspecified) | inconclusive: 29.1 µM [falling, single point] |
| N/C(=N\OC(=O)CC1CCCCC1)c1ccccn1 | inconclusive: 29.1 µM [activator, single point] |
| CCN(CC)c1ccc(/C=N/N2CC(=O)NC2=S)cc1 | inactive |
| O=C(/C=C/c1cccc(F)c1)Nc1cc(S(=O)(=O)N2CCOCC2)ccc1Cl | inconclusive: 20.6 µM [falling, single point] |
| COC(=O)c1ccc(NS(=O)(=O)c2ccc3[nH]c4c(c3c2)CCCCC4)cc1 | inconclusive: 6.51 µM [falling, partial curve, poor fit] |
| COC(=O)c1ccc(OC)c(CN2CCCN(Cc3cc(C)ccc3C)S2(=O)=O)c1 | inactive |
| CC1Sc2ccc(S(=O)(=O)CCC(=O)NCc3ccc(Cl)cc3)cc2NC1=O (stereo unspecified) | inconclusive: 18.4 µM [falling, single point] |
| CCCCNC(=O)c1sc2nc(C)cc(COC)c2c1-n1cccc1 | inconclusive: 13 µM [falling, partial curve] |
| C=C1N(c2cccc(Cl)c2)C(=O)OC1(C)C | inconclusive: 16.4 µM [activator, partial curve, poor fit] |
| c1ccc(-c2nc(NC3CCCC3)c3ccccc3n2)cc1 | active: 23.1 µM |
| Cc1nnsc1-c1onc(C)c1C(=O)Nc1cc(Cl)cc(Cl)c1 | inconclusive: 20.6 µM [falling, single point] |
| O=C(c1cc(-c2ccc(O)cc2)on1)N1CCCCCC1 | inconclusive: 18.4 µM [activator, partial curve] |
| COc1ccc(-c2cc(-c3nnc(COC(=O)CC4CCCC4)o3)c3ccccc3n2)cc1OC | inconclusive: 1.03 µM [activator, partial curve] |

Quoted at random: 4 compounds from above.

| SMILES | Potency |
| --- | --- |
| O=C(/C=C/c1cccc(F)c1)Nc1cc(S(=O)(=O)N2CCOCC2)ccc1Cl | inconclusive: 20.6 µM [falling, single point] |
| C1=CC2=NC34CCCCC3CC3=C(CCCC3)N4C2=CC1=NC1CCCCC1 (stereo unspecified) | inconclusive: 29.1 µM [falling, single point] |
| N#CC1=C(N)Oc2[nH]c(=S)[nH]c(=O)c2C12C(=O)Nc1ccccc12 (stereo unspecified) | inconclusive: 25.9 µM [falling, partial curve, poor fit] |
| CCOC(=O)Cc1csc(NC(=O)COC(=O)/C=C/c2ccc(OC)cc2)n1 | inconclusive: 29.1 µM [falling, single point] |

Continuation.

| SMILES | Potency |
| --- | --- |
| CCCc1cc(=O)n2[nH]c(-c3ccc(Cl)cc3)cc2n1 | inconclusive: 29.1 µM [activator, single point] |
| Cc1nn(C)cc1CNC(=O)Nc1cccc(Cl)c1 | inconclusive: 10.3 µM [activator, partial curve, poor fit] |
| CCc1ccc(-c2csc(NC(=O)C3CC(=O)N(c4ccc5c(c4)OCCO5)C3)n2)cc1 (stereo unspecified) | inconclusive: 29.1 µM [falling, single point] |
| CCOC(=O)C(C)NC(=O)c1cn(-c2ccc(OC)cc2)c(=O)c2ccccc12 (stereo unspecified) | inconclusive: 13 µM [activator, partial curve, poor fit] |
| CCCCn1nc(C(=O)NC2CCCCCC2)c2ccccc2c1=O | inconclusive: 3.66 µM [falling, full curve] |
| CCOC(=O)c1cnc(Nc2nc3ccccc3o2)nc1CSc1nnc(C)s1 | inconclusive: 32.6 µM [falling, single point] |
| CCc1sc(C(=O)Nc2cc(Cl)ccc2N2CCCCC2)cc1C | inactive |
| CCOC(=O)c1sc(NC(=O)CSc2nncn2C)nc1C | inconclusive: 2.59 µM [activator, full curve] |
| Cc1cc(F)ccc1S(=O)(=O)Nc1ccccc1C(=O)Nc1ccccc1-c1nc2ccccc2[nH]1 | active: 4.11 µM |
| CCOc1ccc2nc(SC(C)C(N)=O)[nH]c2c1 (stereo unspecified) | inconclusive: 25.9 µM [activator, single point] |
| C=CCOc1ccc2c(CC)cc(=O)oc2c1C | inactive |
| CC(C)c1ccc(NS(=O)(=O)c2ccc3[nH]cc(C(=O)NC4CCCCC4)c(=O)c3c2)cc1 | inactive |
| CCOc1ccc(CNCCNC(=O)c2nonc2N)cc1 | inconclusive: 0.146 µM [falling, full curve, poor fit] |
| COc1ccc(-n2c(-c3ccc(Cl)cc3)cc3c2CC(C)(C)CC3=O)c(OC)c1 | inconclusive: 29.1 µM [falling, single point] |
| Cn1c(=O)[nH]c(=O)c2c1nc(SCC(O)CCl)n2Cc1ccccc1 (stereo unspecified) | inconclusive: 14.6 µM [falling, partial curve, poor fit] |
| CC(=O)Oc1ccc(/C=C2/CCc3ccccc3C2=O)cc1 | inconclusive: 29.1 µM [activator, single point] |
| O=C(NCCN1CCCC1)c1ccc(CS(=O)(=O)c2c(Cl)cccc2Cl)o1 | inconclusive: 16.4 µM [activator, partial curve] |
| O=C(c1ccc(C(F)(F)F)cc1)C1CCCN(C(=O)CN2C(=O)CSC2=O)C1 (stereo unspecified) | inconclusive: 16.4 µM [activator, single point] |
| COc1ccc(Nc2nc(N3CCCCC3)nc3ccccc23)c(OC)c1 | inactive |
| CC1CC2=C(NC(=S)NC2c2cccc(F)c2)/C(=C/c2cccc(F)c2)C1 (stereo unspecified) | inconclusive: 20.6 µM [falling, partial curve, poor fit] |
| COc1cc2c(cc1OC)-c1nnc(-c3ccco3)n1C1(CCCC1)C2 | inactive |
| CC(C)n1cc(/C=N/Nc2ccc(C(=O)O)cc2)c2ccccc21 | inconclusive: 18.4 µM [activator, partial curve] |
| COc1ccc(-c2noc(-c3ccc(Br)o3)n2)cc1 | inconclusive: 8.2 µM [activator, partial curve] |
| C=CCN1C(=O)S/C(=C/c2ccsc2)C1=O | inactive |

| SMILES | Potency |
| --- | --- |
| C=CCn1cccc(C(=O)Nc2ccc(OCC)cc2)c1=O | active: 11.6 µM |
| CCOC(=O)c1sc(-c2ccc(OC)cc2)cc1NC(C)=O | inconclusive: 29.1 µM [activator, single point] |
| Cc1oc2ncn(CC(C)C)c(=O)c2c1C(=O)Nc1ccc(Cl)cn1 | inconclusive: 23.1 µM [activator, single point] |
| O=C(CCl)N1CCN2C(=O)c3ccccc3C12c1ccc(Cl)cc1 (stereo unspecified) | inactive |
| CCOc1ccc(C(=O)NCC(=O)NCCSc2ccc(Br)cc2)cc1OCC | inactive |
| COc1ccc(-c2nc3ccccn3c2NC2CCCCC2)cc1SC1CCCCC1 | inconclusive: 18.4 µM [falling, single point] |
| FC(F)Sc1ccc(NC(=S)NCC2CCCCC2)cc1 | inconclusive: 29.1 µM [falling, single point] |
| CCCCNS(=O)(=O)c1ccc2nc(SCC(=O)Nc3cc(C)cc(C)c3)[nH]c2c1 | active: 13 µM |
| Clc1ccc(-c2nnn(Cc3nc4ccccc4s3)n2)cc1 | inconclusive: 20.6 µM [activator, single point] |
| O=C(c1ccco1)N(Cc1cccs1)c1ccc(O)cc1 | inactive |
| Cc1nc(NC(=O)c2ccccc2)sc1C | inconclusive: 5.17 µM [activator, partial curve, poor fit] |
| O=[N+]([O-])c1cc(CN2CCOCC2)c2cccnc2c1O | active: 23.1 µM |
| O=C(NCCSCc1ccco1)Nc1cc(Cl)cc(Cl)c1 | inconclusive: 29.1 µM [activator, single point] |
| COc1cc(NC(=O)CSc2ccc(-c3ccco3)nn2)cc(OC)c1 | inactive |
| O=C(Nc1nc2c(s1)CCc1ccccc1-2)c1cccs1 | inconclusive: 29.1 µM [falling, single point] |
| Cc1c(C(=O)Nc2ccc(F)cc2F)nnn1-c1ccccc1Br | inactive |
| Cc1cccnc1Nc1nc(-c2ccccc2)cs1 | inconclusive: 0.92 µM [activator, full curve] |
| COc1ccc(C(=O)/C=C/c2cn(CC(O)CN(CC(C)C)CC(C)C)c3ccccc23)cc1OC (stereo unspecified) | inconclusive: 16.4 µM [falling, single point] |
| CCOC(=O)N1CCN(C(=O)c2cc(-c3ccncc3)nc3ccccc23)CC1 | inactive |
| O=C(Nc1sc2c(c1C(=O)O)CCC2)c1cccc(Cl)c1 | inconclusive: 7.31 µM [activator, partial curve] |
| CCOC(=O)c1c(C)n(C)c2cc(Br)c(OC)cc12 | inconclusive: 0.517 µM [falling, full curve, poor fit] |
| CC(C)c1ccc(NC(=O)CCS(=O)(=O)c2ccc(Br)s2)cc1 | active: 25.9 µM |
| O=S(=O)(NCc1ccncc1)c1ccc(S(=O)(=O)NCC2CCCO2)cc1 (stereo unspecified) | active: 9.2 µM |
